{"source": "paper PMC8466066", "about": "“Searching for Biological Function of the Mysterious PA2504 Protein from Pseudomonas aeruginosa” (International Journal of Molecular Sciences, 2021)", "binders": {"B1": {"name": "PA2504 protein, T18 fusion of the bacterial two-hybrid system (plasmid p18C2504) (protein, UniProt Q9I0X8 1-205)", "chain": "MASWTLVDASAIAVRHPYTFYKPDAETIDRVAAGESVKLIFAFDTDNPDAPRAERLWVTVEGIEADGAFSGRLDNYPQYIRDLSLGERIVFEARHIINTEHDPRETPISRYARRCFVTRRVIDEGKAVGYLYREAPEEENDSGWRLMAGDESDDYMNTAGTTAYVSLGSVLNADDSILPLLDAPPGRAFERLADGSFIEVQGPEG"}, "B2": {"name": "His6-tagged PA2504 expressed in P. aeruginosa ΔPA2504 (plasmid pKGB2504) (protein, UniProt Q9I0X8 1-205)", "chain": "B1 chain"}}, "key": {"[1]": {"target": "PA2504 protein, T18 fusion of the bacterial two-hybrid system (plasmid p18C2504) (Pseudomonas aeruginosa) (UniProt Q9I0X8)", "test": "two-hybrid; one-to-one BACTH in E. coli BTH101 cyaA; MacConkey selective medium with maltose (red colonies) or LB X-Gal IPTG medium; negative controls with one empty vector"}, "[2]": {"target": "His6-tagged PA2504 expressed in P. aeruginosa ΔPA2504 (plasmid pKGB2504) (Pseudomonas aeruginosa) (UniProt Q9I0X8)", "test": "cross-linking; in vivo formaldehyde cross-linking (0.1% to 1% tested), His6-PA2504 isolated on Ni-NTA, loading dye at 65 °C for 20 min to preserve the cross-links, SDS-PAGE and western blotting"}}, "note": "No constants are given. Whether binding was seen depends on the method and setting. For some assays here: In cells and extracts the contact can be indirect. Some results given as binding are weak or reduced against the parent protein; the word gives no strength. Sequences can lack the tags named with a protein.", "data": [{"binder": "B1", "values": [{"measurement": "binding", "setting": "[1]", "result": "binds"}]}, {"binder": "B2", "values": [{"measurement": "binding", "setting": "[2]", "result": "binds"}]}]}
